Article PMC10333294
These are yes or no findings as the source states them, for the method shown. In cells and extracts the contact can be indirect. Some binding calls cover weakened binding; strength is not graded here.

The chains behind the UniProt entries cited, without tags or fusion partners.
UniProt P78527: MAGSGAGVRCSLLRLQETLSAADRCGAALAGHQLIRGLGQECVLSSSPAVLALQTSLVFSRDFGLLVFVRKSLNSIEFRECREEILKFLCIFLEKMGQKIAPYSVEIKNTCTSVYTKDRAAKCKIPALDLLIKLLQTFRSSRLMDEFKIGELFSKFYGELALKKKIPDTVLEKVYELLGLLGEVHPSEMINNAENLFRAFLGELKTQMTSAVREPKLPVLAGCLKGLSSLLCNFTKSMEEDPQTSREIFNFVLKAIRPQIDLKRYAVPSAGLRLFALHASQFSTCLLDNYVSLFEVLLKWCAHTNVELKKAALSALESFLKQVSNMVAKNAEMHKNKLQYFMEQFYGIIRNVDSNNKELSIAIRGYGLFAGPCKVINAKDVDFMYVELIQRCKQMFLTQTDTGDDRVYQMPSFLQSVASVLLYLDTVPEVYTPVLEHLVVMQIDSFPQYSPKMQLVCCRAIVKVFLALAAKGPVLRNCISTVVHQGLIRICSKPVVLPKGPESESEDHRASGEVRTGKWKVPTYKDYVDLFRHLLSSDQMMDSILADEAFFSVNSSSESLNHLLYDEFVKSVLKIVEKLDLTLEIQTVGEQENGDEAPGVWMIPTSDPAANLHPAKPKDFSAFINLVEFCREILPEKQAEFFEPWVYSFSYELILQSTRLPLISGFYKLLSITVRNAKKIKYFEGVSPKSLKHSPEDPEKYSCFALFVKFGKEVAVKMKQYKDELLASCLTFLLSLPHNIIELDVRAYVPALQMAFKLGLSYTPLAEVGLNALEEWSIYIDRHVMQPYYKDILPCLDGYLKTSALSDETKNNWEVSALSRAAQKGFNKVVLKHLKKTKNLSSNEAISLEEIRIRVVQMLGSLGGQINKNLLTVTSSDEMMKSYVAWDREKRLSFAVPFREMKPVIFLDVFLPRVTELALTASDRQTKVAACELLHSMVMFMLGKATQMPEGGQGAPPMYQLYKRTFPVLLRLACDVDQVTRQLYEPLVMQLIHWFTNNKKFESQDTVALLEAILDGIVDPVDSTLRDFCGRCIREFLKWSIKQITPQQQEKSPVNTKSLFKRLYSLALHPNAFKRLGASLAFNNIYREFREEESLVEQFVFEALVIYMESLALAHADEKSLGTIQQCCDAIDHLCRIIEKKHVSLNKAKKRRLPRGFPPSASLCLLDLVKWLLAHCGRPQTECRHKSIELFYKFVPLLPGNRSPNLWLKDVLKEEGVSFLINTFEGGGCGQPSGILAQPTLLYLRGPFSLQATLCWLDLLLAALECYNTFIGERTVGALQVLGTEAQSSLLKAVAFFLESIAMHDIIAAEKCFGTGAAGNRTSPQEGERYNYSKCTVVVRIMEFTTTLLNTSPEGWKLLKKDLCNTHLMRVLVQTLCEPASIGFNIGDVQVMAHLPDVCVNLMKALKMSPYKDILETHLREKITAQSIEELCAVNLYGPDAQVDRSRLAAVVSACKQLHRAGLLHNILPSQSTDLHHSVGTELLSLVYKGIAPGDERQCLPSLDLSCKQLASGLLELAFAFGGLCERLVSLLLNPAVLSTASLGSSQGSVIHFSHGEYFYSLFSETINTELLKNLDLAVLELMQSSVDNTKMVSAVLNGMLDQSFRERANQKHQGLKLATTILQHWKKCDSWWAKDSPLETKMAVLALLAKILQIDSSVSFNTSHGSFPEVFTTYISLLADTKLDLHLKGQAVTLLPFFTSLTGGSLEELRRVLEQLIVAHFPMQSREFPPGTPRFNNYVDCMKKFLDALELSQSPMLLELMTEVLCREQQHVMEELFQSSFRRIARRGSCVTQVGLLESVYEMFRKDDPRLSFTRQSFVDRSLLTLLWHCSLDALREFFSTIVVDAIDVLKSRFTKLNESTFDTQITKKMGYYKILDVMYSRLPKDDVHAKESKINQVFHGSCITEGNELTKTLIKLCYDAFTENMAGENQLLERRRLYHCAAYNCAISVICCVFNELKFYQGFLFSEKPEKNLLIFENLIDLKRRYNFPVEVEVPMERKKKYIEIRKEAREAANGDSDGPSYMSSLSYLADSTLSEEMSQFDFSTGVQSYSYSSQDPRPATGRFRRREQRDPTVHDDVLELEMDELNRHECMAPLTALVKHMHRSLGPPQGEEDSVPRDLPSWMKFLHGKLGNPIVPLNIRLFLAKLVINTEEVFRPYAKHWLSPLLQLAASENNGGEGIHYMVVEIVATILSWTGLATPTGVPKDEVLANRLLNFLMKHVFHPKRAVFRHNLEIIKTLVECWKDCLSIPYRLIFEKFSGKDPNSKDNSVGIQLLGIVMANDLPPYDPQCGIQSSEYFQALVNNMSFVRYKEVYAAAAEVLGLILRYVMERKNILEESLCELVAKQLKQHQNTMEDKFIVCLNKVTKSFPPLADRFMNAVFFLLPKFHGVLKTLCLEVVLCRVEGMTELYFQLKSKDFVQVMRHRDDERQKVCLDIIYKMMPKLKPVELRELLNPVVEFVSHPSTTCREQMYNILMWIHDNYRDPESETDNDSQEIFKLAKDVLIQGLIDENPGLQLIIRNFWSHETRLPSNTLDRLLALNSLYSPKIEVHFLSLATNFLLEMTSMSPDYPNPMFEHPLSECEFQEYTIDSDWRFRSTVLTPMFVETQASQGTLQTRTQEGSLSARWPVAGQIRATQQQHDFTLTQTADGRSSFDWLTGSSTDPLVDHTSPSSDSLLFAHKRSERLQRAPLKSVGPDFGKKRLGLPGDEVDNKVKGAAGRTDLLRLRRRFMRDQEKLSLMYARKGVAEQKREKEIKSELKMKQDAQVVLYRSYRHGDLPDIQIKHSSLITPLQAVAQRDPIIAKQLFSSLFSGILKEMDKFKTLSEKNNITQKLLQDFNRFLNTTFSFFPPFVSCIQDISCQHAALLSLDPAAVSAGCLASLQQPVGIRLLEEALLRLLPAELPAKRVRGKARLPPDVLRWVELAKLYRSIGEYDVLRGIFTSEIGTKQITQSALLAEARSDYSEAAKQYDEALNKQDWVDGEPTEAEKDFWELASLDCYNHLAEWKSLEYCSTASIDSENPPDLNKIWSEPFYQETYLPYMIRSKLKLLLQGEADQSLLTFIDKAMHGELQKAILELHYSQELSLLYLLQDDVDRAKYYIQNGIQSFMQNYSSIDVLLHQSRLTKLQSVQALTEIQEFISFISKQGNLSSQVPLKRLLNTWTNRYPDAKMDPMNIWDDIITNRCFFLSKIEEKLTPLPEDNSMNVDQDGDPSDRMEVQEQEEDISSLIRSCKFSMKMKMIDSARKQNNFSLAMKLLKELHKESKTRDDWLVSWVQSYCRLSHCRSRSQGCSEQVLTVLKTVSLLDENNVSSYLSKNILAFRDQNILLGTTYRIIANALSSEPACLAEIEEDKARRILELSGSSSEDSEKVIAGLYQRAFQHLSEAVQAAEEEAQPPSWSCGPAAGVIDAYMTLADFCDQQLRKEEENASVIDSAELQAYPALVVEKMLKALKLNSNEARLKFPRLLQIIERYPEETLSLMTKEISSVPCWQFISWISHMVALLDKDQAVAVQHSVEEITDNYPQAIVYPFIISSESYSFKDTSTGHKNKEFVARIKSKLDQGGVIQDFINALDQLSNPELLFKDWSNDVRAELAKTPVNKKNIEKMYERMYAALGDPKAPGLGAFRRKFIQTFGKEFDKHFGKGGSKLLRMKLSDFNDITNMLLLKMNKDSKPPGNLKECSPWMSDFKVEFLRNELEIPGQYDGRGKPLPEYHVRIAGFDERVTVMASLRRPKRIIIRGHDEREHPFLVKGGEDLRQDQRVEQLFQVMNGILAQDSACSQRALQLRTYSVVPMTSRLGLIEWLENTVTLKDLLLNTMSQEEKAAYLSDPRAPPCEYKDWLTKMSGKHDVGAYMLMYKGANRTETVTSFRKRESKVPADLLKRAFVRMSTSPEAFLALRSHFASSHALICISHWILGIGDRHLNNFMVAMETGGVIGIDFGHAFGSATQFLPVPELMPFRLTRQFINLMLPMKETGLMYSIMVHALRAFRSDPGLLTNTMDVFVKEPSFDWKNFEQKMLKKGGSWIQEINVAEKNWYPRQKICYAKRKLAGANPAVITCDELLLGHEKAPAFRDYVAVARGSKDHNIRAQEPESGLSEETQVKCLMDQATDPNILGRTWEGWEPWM
UniProt Q9Y4X5: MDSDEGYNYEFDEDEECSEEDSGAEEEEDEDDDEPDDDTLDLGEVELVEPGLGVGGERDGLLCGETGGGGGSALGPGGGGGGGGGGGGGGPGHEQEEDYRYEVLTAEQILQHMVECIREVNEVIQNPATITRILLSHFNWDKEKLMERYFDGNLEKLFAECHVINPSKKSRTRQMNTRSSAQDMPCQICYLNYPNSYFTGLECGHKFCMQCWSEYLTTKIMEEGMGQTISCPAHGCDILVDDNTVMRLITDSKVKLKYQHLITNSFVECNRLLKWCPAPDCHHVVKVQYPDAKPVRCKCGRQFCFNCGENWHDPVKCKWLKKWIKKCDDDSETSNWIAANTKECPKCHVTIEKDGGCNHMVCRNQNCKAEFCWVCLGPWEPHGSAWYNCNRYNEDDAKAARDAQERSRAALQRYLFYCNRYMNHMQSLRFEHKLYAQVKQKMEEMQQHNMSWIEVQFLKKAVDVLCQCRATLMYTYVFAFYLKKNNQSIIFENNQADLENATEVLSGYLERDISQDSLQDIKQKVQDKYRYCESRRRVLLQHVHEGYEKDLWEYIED

How the values were obtained:
[1] = target: DNA-PKcs (DNA-dependent protein kinase catalytic subunit), endogenous (human (endogenous in HEK293T)) (UniProt P78527); test: co-IP; endogenous DNA-PKcs immunoprecipitated with anti-DNA-PKcs from HEK293T cells, immunoprecipitates analysed with anti-ARIH1; IgG control
[2] = target: ARIH1^-WT-HA (Ariadne RBR E3 ubiquitin-protein ligase 1, HA-tagged) (human) (UniProt Q9Y4X5); test: co-IP; interaction of ARIH1 with DNA-PKcs with overexpressed G-Flag (Fig. 5i, Supplementary Fig. 11i); bait not stated
[3] = target: ARIH1 of the GST pull-down assay (human) (UniProt Q9Y4X5); test: pull-down; GST pull-down; set-up not described in the text (Supplementary Fig. 11b, c)

Substance: ARIH1 in HEK293T cells (detected with anti-ARIH1) (from UniProt Q9Y4X5 1-557) (enzyme)
- binding [1]: binds

Substance: DNA-PKcs (DNA-dependent protein kinase catalytic subunit), endogenous (from UniProt P78527 1-4128)
- binding [2]: binds

Substance: DNA-PKcs of the GST pull-down assay (from UniProt P78527 1-4128)
- binding [3]: binds
